The supplement of paper PMC10849652
The list shows a part of the results.

By UniProt entry, the sequences of proteins in these tests, tags left out. Where a name states a change or a piece, a line headed by the entry shows the natural chain unless it says otherwise.
UniProt Q8IY63: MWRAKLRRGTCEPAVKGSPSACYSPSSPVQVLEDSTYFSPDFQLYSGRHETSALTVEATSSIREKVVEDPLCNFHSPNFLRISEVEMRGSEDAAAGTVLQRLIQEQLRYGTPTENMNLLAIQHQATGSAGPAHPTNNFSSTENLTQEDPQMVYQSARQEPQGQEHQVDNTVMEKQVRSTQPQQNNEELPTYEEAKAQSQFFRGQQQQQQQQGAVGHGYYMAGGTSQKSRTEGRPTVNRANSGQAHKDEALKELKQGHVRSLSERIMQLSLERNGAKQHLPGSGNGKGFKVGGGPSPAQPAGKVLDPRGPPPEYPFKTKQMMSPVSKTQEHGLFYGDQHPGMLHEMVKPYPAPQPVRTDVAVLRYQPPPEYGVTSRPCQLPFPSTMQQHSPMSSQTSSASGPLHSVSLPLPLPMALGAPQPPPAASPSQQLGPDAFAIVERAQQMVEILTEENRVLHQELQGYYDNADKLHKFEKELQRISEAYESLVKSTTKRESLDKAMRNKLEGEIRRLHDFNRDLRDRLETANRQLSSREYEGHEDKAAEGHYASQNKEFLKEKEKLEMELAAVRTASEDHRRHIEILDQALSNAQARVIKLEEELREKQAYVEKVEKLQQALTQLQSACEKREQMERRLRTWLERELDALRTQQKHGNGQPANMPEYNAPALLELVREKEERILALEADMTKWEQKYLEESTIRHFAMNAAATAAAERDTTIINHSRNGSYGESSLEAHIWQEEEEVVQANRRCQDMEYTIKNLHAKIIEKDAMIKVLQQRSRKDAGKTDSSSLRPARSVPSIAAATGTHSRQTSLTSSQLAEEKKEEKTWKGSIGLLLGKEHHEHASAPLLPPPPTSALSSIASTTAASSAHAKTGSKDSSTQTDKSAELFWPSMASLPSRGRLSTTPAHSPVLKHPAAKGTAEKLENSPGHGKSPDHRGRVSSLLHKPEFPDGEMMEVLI
UniProt P00568: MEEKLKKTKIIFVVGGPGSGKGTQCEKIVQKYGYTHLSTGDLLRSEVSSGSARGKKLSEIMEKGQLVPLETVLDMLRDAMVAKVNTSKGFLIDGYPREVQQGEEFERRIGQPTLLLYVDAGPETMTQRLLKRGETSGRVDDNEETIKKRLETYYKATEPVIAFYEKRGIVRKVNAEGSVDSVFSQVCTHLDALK
UniProt P51649: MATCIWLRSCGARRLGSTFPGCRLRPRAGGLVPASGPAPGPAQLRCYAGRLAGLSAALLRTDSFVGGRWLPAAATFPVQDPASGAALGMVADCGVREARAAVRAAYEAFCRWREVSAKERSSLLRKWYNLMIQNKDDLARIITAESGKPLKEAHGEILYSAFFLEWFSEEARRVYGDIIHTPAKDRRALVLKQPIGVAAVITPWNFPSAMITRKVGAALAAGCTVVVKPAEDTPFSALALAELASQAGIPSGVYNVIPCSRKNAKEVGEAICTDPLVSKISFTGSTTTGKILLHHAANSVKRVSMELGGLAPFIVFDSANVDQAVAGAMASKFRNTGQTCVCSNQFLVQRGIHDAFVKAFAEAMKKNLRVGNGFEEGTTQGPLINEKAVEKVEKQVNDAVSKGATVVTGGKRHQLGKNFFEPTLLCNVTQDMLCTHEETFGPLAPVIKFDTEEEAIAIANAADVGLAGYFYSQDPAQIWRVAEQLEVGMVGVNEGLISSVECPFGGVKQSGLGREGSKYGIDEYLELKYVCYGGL
UniProt Q96Q83: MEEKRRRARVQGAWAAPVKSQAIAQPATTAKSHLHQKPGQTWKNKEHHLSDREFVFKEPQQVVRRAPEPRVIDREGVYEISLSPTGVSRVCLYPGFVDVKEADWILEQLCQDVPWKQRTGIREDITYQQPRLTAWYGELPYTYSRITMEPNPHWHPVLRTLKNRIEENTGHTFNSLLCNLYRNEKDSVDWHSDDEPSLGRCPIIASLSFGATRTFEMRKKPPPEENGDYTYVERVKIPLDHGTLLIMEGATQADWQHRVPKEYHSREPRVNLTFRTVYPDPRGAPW
UniProt P30038: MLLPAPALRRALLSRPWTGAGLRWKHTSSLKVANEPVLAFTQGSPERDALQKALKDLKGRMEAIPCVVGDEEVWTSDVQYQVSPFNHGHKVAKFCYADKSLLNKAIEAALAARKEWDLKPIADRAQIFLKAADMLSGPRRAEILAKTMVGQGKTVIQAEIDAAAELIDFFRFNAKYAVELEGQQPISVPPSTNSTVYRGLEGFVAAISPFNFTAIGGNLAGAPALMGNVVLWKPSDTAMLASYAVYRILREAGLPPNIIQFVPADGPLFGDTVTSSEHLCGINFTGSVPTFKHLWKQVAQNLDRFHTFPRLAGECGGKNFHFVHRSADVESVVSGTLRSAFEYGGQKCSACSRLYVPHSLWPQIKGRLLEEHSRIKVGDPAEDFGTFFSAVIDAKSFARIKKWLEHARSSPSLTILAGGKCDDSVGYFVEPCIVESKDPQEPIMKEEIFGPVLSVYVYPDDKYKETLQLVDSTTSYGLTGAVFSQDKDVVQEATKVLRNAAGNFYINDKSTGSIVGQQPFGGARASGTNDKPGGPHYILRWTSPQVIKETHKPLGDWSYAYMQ
UniProt Q9NX46: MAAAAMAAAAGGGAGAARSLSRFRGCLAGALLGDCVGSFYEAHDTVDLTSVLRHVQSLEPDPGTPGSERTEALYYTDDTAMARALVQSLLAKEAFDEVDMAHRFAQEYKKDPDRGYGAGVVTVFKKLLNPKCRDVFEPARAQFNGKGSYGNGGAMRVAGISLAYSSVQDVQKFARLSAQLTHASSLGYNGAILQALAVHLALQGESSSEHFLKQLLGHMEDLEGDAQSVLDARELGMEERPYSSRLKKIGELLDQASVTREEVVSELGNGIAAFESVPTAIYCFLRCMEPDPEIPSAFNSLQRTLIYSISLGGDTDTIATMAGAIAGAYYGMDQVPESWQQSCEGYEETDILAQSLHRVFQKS
UniProt O95433, whole entry, looked up: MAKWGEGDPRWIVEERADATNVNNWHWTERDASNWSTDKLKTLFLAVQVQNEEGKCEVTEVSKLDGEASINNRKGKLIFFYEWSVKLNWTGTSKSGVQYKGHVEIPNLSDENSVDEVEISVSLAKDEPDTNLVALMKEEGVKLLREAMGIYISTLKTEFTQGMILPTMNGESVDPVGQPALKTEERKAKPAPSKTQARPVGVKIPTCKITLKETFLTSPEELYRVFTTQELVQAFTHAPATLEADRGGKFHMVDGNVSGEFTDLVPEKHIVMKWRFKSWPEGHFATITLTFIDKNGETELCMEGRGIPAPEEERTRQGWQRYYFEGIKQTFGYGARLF
UniProt P52594: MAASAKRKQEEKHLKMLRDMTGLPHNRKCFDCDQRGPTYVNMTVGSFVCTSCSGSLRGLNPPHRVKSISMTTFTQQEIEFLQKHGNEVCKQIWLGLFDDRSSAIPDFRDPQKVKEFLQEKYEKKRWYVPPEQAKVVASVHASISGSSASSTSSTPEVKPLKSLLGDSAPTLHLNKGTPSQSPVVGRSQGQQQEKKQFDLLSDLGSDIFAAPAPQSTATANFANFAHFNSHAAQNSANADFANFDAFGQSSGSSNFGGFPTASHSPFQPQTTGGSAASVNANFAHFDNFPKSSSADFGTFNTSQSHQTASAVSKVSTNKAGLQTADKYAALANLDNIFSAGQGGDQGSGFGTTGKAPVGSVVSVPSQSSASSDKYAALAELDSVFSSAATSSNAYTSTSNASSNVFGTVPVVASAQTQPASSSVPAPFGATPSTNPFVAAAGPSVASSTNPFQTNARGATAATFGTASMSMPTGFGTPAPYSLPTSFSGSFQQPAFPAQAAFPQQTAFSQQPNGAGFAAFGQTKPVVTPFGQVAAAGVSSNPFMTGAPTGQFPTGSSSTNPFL
UniProt Q9BV57: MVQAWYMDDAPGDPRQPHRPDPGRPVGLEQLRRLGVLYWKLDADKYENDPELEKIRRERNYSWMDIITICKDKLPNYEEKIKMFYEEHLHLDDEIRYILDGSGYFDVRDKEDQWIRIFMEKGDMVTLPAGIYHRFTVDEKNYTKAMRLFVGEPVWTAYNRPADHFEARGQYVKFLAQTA

Key:
Test in all cases: log2 fold change, soluble protein after heating vs DMSO (PISA); higher = thermal stabilisation; K562 cells, 10 uM, 30 min; active = over 0.2 and 3.5 SD of the protein, either way, in both replicates (recomputed)
bafetinib = compound: Cc1ccc(NC(=O)c2ccc(CN3CC[C@H](N(C)C)C3)c(C(F)(F)F)c2)cc1Nc1nccc(-c2cncnc2)n1 [bafetinib]
Procedure, shortened: (§1)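 K562 cells at 2×10^6 cells/mL were treated for 30 min with 10 μM compound, and aliquots were heated for 3 min over 48°C-58°C before pooling. Extraction used PBS with 0.5% NP-40 at 4°C, and soluble protein was the supernatant after 21,000xg for 90 min, measured by TMTpro 16plex LC-MS/MS with channel sums equalised. Thermal stability values, relative to control samples and from duplicates, are log2 fold changes.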

[1] = compound: Cc1cccc(CC(=O)N2CCc3c2ccc(-c2cn(C)c4ncnc(N)c24)c3F)n1
Procedure, shortened: as §1

nilotinib = compound: Cc1cn(-c2cc(NC(=O)c3ccc(C)c(Nc4nccc(-c5cccnc5)n4)c3)cc(C(F)(F)F)c2)cn1 [nilotinib]
Procedure, shortened: as §1

[2] = compound: Cc1nc(Nc2n[nH]c3c2CN(C(=O)N[C@H](CN(C)C)c2ccccc2)C3(C)C)c2sccc2n1
Procedure, shortened: as §1

dasatinib = compound: Cc1nc(Nc2ncc(C(=O)Nc3c(C)cccc3Cl)s2)cc(N2CCN(CCO)CC2)n1 [dasatinib]
Procedure, shortened: as §1

[3] = compound: Cc1ncc(-c2ccnc(Nc3ccc(S(C)(=O)=O)cc3)n2)n1C(C)C
Procedure, shortened: as §1

[4] = compound: Cn1cc(-c2ccc3c(c2)CCN3C(=O)Cc2cccc(C(F)(F)F)c2)c2c(N)ncnc21
Procedure, shortened: as §1

[5] = compound: Cn1cc(-c2ccc3nnc(C(F)(F)c4ccc5ncccc5c4)n3n2)cn1
Procedure, shortened: as §1

tipifarnib = compound: Cn1cncc1[C@@](N)(c1ccc(Cl)cc1)c1ccc2c(c1)c(-c1cccc(Cl)c1)cc(=O)n2C [tipifarnib]
Procedure, shortened: as §1

mubritinib = compound: FC(F)(F)c1ccc(/C=C/c2nc(COc3ccc(CCCCn4ccnn4)cc3)co2)cc1 [mubritinib]
Procedure, shortened: as §1

[6] = compound: NC(=O)Nc1cc(-c2cccc(F)c2)sc1C(=O)N[C@H]1CCCNC1
Procedure, shortened: as §1

[7] = compound: NC(=O)c1cnc(N[C@@H]2CCCC[C@@H]2N)nc1Nc1cccc(-n2nccn2)c1
Procedure, shortened: as §1

[8] = compound: NC1(c2ccc(-c3nc4ccn5c(=O)[nH]nc5c4cc3-c3ccccc3)cc2)CCC1
Procedure, shortened: as §1

[9] = compound: NCC(=O)Nc1ccc(-n2nc(C(F)(F)F)cc2-c2ccc3c(ccc4ccccc43)c2)cc1
Procedure, shortened: as §1

entinostat = compound: Nc1ccccc1NC(=O)c1ccc(CNC(=O)OCc2cccnc2)cc1 [entinostat]
Procedure, shortened: as §1

vorinostat = compound: O=C(CCCCCCC(=O)Nc1ccccc1)NO [vorinostat]
Procedure, shortened: as §1

citarinostat = compound: O=C(CCCCCCNC(=O)c1cnc(N(c2ccccc2)c2ccccc2Cl)nc1)NO [citarinostat]
Procedure, shortened: as §1

silmitasertib = compound: O=C(O)c1ccc2c(c1)nc(Nc1cccc(Cl)c1)c1ccncc12 [silmitasertib]
Procedure, shortened: as §1

[10] = compound: O=C1NC(=O)C(c2cnc3ccccn23)=C1c1cn2c3c(cc(F)cc13)CN(C(=O)N1CCCCC1)CC2
Procedure, shortened: as §1

[11] = compound: c1cc(OCCN2CCCCC2)cc(-c2n[nH]c3ccc(-c4nnc[nH]4)cc23)c1
Procedure, shortened: as §1

Measured: log2 fold change

AMOTL1 (UniProt Q8IY63)
inactive: bafetinib 0.162

AK1 (UniProt P00568)
inactive: bafetinib 0.01 | [1] -0.007 | nilotinib 0.02 | [2] -0.003 | dasatinib -0.12 | [3] 0.01 | [4] 0.048 | [5] 0.013 | tipifarnib -0.074 | mubritinib 0.059 | [6] -0.038 | [7] -0.106 | [8] -0.096 | [9] -0.058 | entinostat -0.014 | vorinostat 0.039 | citarinostat 0.017 | silmitasertib -0.016 | [10] -0.04 | [11] -0.001

ALDH5A1 isoform 2 (UniProt P51649)
inactive: bafetinib -0.067 | [1] -0.058 | nilotinib 0.006 | [2] 0.012 | dasatinib 0.018 | [3] -0.027 | [4] 0.015 | [5] -0.001 | tipifarnib -0.011 | mubritinib 0.004 | [6] 0.014 | [7] 0.01 | [8] -0.018 | [9] 0.026 | entinostat -0.01 | vorinostat -0.027 | citarinostat 0.045 | silmitasertib -0.003 | [10] -0.017 | [11] -0.025

ALKBH3 (UniProt Q96Q83)
inactive: bafetinib -0.041 | [1] -0.011 | nilotinib 0.017 | [2] 0.037 | dasatinib -0.036 | [3] -0.088 | [4] 0.019 | [5] 0.055 | tipifarnib -0.035 | mubritinib 0 | [6] -0.011 | [7] -0.023 | [8] -0.018 | [9] 0.112 | entinostat -0.039 | vorinostat -0.02 | citarinostat 0.014 | silmitasertib -0.006 | [10] -0.07 | [11] 0.021

ALDH4A1 (UniProt P30038)
inactive: bafetinib -0.055 | [1] -0.061 | nilotinib 0.034 | [2] -0.023 | dasatinib 0 | [3] -0.024 | [4] 0.073 | [5] 0.038 | tipifarnib 0.029 | mubritinib -0.164 | [6] -0.047 | [7] -0.002 | [8] -0.039 | [9] -0.026 | entinostat -0.024 | vorinostat 0.001 | citarinostat 0.013 | silmitasertib -0.038 | [10] -0.016 | [11] -0.036

ADPRHL2 (UniProt Q9NX46)
inactive: bafetinib 0.201 | [1] 0.029 | nilotinib 0.013 | [2] 0.164 | dasatinib -0.034 | [3] 0.124 | [4] 0.082 | [5] 0.052 | tipifarnib -0.159 | [6] -0.022 | [7] -0.02 | [8] -0.056 | [9] -0.045 | entinostat 0.027 | vorinostat -0.039 | citarinostat 0.076 | silmitasertib -0.045 | [10] -0.028 | [11] 0.055
active: mubritinib 0.349

2 records picked at random from the list so far, as already listed:
AMOTL1 (UniProt Q8IY63)
inactive: bafetinib 0.162

ALKBH3 (UniProt Q96Q83)
inactive: bafetinib -0.041 | [1] -0.011 | nilotinib 0.017 | [2] 0.037 | dasatinib -0.036 | [3] -0.088 | [4] 0.019 | [5] 0.055 | tipifarnib -0.035 | mubritinib 0 | [6] -0.011 | [7] -0.023 | [8] -0.018 | [9] 0.112 | entinostat -0.039 | vorinostat -0.02 | citarinostat 0.014 | silmitasertib -0.006 | [10] -0.07 | [11] 0.021

(next part)

AHSA1 (UniProt O95433)
inactive: bafetinib -0.059 | [1] 0.013 | nilotinib -0.052 | [2] -0.035 | dasatinib -0.096 | [3] -0.018 | [4] 0.065 | [5] 0.009 | tipifarnib -0.056 | mubritinib 0.038 | [6] -0.002 | [7] -0.005 | [8] -0.131 | [9] -0.043 | entinostat 0.022 | vorinostat 0.013 | citarinostat 0.026 | silmitasertib 0.019 | [10] -0.009 | [11] -0.003

AGFG1 isoform 4 (UniProt P52594)
inactive: bafetinib -0.097 | [1] 0.126 | nilotinib 0.041 | [2] -0.029 | dasatinib 0.004 | [3] 0.02 | [4] 0.044 | [5] 0.027 | tipifarnib -0.077 | mubritinib 0.046 | [6] 0.01 | [7] 0.025 | [8] -0.011 | [9] 0.049 | entinostat 0.007 | vorinostat 0.031 | citarinostat 0.117 | silmitasertib 0.004 | [10] 0.131 | [11] -0.01

ADI1 (UniProt Q9BV57)
inactive: bafetinib -0.035 | [1] -0.03 | nilotinib -0.017 | [2] -0.029 | dasatinib -0.031 | [3] -0.006 | [4] 0.055 | [5] 0.052 | tipifarnib 0.005 | mubritinib 0.068 | [6] -0.009 | [7] -0.163 | [8] -0.177 | [9] -0.171 | entinostat -0.03 | vorinostat -0.129 | citarinostat 0.065 | silmitasertib 0.036 | [10] -0.056 | [11] -0.02
